Data on 107 sequences can be found in PubChem BioAssay AID1508600 (Functional Genomics Laboratory (NCATS/FGL), 2020).

The whole screen tested about 53,000 sequences, of which about 3,700 (7%) were called active.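 The calls were made as follows: active = gene knockdowns whose robust z-score for IL-1 alpha signal is at least 2 or at most -2, so actives lie on both sides; inactive = the rest.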 The list shows a part of the results.

The assay in a line: Components of the Cytosolic LPS Sensing Pathway: Gene Identification via Genome-wide siRNA Screen.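 Also: robust z of the log signal after scaling to non-targeting control siRNA wells of the plate.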 The settings on record: RAW264.7 macrophages, IL-1a HTRF, actives lie on both sides, screened at 100 nM (by protocol), cells primed 5 h with Pam3CSK4 first. The gist of the method:
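Using IL-1a HTRF as read-out, the screen measured release from RAW264.7 cells after 48h siRNA knockdown (100 nM), 5 h Pam3CSK4 priming and 24 h cytosolic LipidA. Values were expressed relative to negative-control wells as robust z-scores.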
Turning to GCCCACCUAAACCAACAGUTT against Dap, the z-score is inactive: 0.989.

Regarding CGAUAUUUAUAUCCACCUATT against Fam81a, the z-score is inactive: -0.758.

Turning to GGAAGUGUACUUCUACACATT against Gabrq, the z-score is inactive: 0.637.

As for CCAGCUGGAAUUCAUGGUCTT against Olfr1307, the z-score is inactive: 0.49.

Consider “GGACAACCGAAGUUUUAAUTT against E130308A19Rik”, for which the z-score is inactive: 0.0435.

Regarding CCACUUACAUGUCAGAUUATT against Slc30a6, the z-score was inactive: 1.09.

Regarding GGUGUGGGUGGGAAAAGAATT against Eva1b, the z-score is inactive: 0.521.

Turning to GCAAUGUGACCUUUCUUCUTT against Tm7sf3, the z-score is inactive: 0.337.

In the case of CCCAAGGUCCAGUUUGAUGTT against Mettl17, the z-score is active: -2.42.

For CCUAUUUUAACCUUACGUGTT against Bdh1, the z-score was inactive: -0.443.

On to GUUUCUCCAUGGAGUCAUUTT against Psmb5, for which the z-score is inactive: -0.742.

As for GCCAAUACGACUGAUGAGCTT against Cst10, the z-score is inactive: -0.694.

On to GGGAAGAACUGUGAUUAUUTT against Hspd1, for which the z-score was inactive: 0.625.

GCUCACACAGGGAACAUUGTT against Btnl10: the z-score was inactive: -0.00185.

With GGGCACACAUAUGACCGUUTT against Rrad, the z-score is inactive: 0.261.

As to GGGAUAAAACAGGUUCAAGTT against Eri2, the z-score was inactive: -1.43.

As to CCAAGAAAGACCGUGUGAATT against Htt, the z-score was inactive: -0.363.

On to GGACAUGAAGACCAAGAUGTT against Cpox, for which the z-score was inactive: -1.57.

In the case of GUGUUUCUUGUUGUGUACATT against Olfr1013, the z-score was inactive: -0.803.

Take GGAGAAGGAUGGAGUGUUUTT against Brms1l: the z-score was inactive: 1.8.

Regarding GGCUUCUCCAACACUAAGATT against Smtn, the z-score was inactive: 0.0761.

On to GGGAUGGAGAAUCAAGAUATT against Tmem117, for which the z-score was inactive: -1.9.

Turning to GCAUUGUGCGAUGAGAAGATT against Fam13a, the z-score is inactive: -0.388.

Take GGUUCCCAAAGUAGAAGCATT against Dkkl1: the z-score was inactive: -0.231.

Consider GGAAUAAUUUCUGGAUUCUTT against Maoa, for which the z-score was inactive: 0.161.

For the sequence GGUAGAAAUCAUUCUCUUUTT against Olfr1037, the z-score is inactive: 0.598.

On to GACAACAAGGUGGCUUCGGTT against Tlx2, for which the z-score was inactive: 0.682.

CCUUUGUAGGAACAAUUUATT against Phlda1: the z-score was inactive: 0.409.

As to GGGCAAAUGACUUGGUGAATT against Maged2, the z-score is inactive: -0.471.

GGGAAAUCACUGGACCAGUTT against Zgpat: the z-score is inactive: 1.1.

Take GGUGUGCAACCUGUUGCUCTT against Siglec1: the z-score was inactive: 0.454.

Turning to GGAAGCCUAUAAUUUAAUCTT against Ttc26, the z-score was inactive: 0.112.

On to CCACCAUGACAAAACGUGUTT against Olfr1459, for which the z-score is inactive: 1.03.

Consider GGAGACUUGCUAAAUGCCCTT against Fkbp7, for which the z-score is inactive: -0.0461.

Consider GGAAGUGAACAAAAUGACUTT against Afp, for which the z-score was inactive: 0.288.

For GGCAUUACAGUGUUUCUGCTT against Tgfbr1, the z-score was inactive: -0.288.

For the sequence GGCAGUACCAGGUCCAGAATT against Angpt2, the z-score was inactive: 0.0599.

Take GGCUGAGAAUGCAAGAAUGTT against Krt32: the z-score was inactive: -0.446.

With GGAGAGUGGGAUGCCUAUUTT against Rsl1, the z-score is inactive: -0.545.

For GGCCUUUGGGACAUGUGUGTT against Olfr552, the z-score is active: -2.05.

In the case of GGUAAGCUAGGUUGCCCACTT against Gabarapl1, the z-score was inactive: 1.91.

As for CGGGACACUUGAAUUGGCUTT against Frmd4a, the z-score is active: -2.25.

GCUGCUUAAGUACAUCAGATT against Grm4: the z-score was inactive: -0.401.

With GGCUAUUGUGGAGAAGAUCTT against Cblif, the z-score is active: -2.07.

For the sequence CCGCCAACACCUUUGUUUUTT against Cyp1b1, the z-score is inactive: 1.31.

GGCAAAGAUGAUGGAAAAATT against Srp68: the z-score was inactive: 0.307.

With GACGGUGGGACUCACUGUUTT against Olfr544, the z-score is inactive: -1.28.

As for “GCACCCAACCCAAAAACACTT against 5730596B20Rik”, the z-score is inactive: -1.08.

In the case of GGAGAGAGUCAGAAAGAAGTT against Fbxo28, the z-score is inactive: -0.411.

Regarding GCCGCUGUCCUACAAGUUATT against Lmo1, the z-score was inactive: -1.49.

For the sequence GUUGCUAAUAUCCUGUCUGTT against Olfr115, the z-score is inactive: 0.492.

Turning to GCUUAUGAGAUGAGUGAAUTT against Ccdc43, the z-score was inactive: -0.209.

Consider GGUUCAUCGUUUUUAAUAGTT against Emb, for which the z-score is inactive: -0.868.

In the case of GGCAAUCACGUGACAUUUCTT against Stk31, the z-score is inactive: 0.512.

As for GGUGUCAUGAUGAACACAGTT against Slc22a12, the z-score was inactive: 0.311.

GGCUCUUGAAAAAAACCCATT against Utp11: the z-score is inactive: 0.441.

As to CUCCUCAGUCAACAAGAACTT against Hoxc11, the z-score was inactive: 0.176.

Turning to GGUUAAACUUGGUGAAUUATT against Kcnj16, the z-score was inactive: 0.901.

For the sequence GGCAACAGCCAUCUAAACGTT against Cdkn2d, the z-score is inactive: 0.439.

CGUUCUACCAAUCAUUAAUTT against Mrpl49: the z-score was inactive: -0.73.

With CGAGGUACAUCCCAAGCAATT against Twf2, the z-score was inactive: 0.532.

In the case of GGUCUCAAUCAGAGUUACATT against Zfp324, the z-score was inactive: -0.936.

Take CGCUGCUGUAUAAGCCCAUTT against Prkab2: the z-score is inactive: -0.463.

For the sequence GUGUUCUAUGGAUCCUCUCTT against Fpr-rs4, the z-score was inactive: 1.05.

In the case of CGUAGCCGAGAAGACCCUATT against Shh, the z-score was inactive: 0.0734.

Consider GGUGGUGCAUCCUAAGAAATT against Gp1bb, for which the z-score was inactive: 0.28.

For GGUAAACGGCUUUUCUUAUTT against Ube2q2, the z-score was inactive: 0.618.

As for “GGCAAUAAUCUUAGAGGUUTT against 9530068E07Rik”, the z-score is inactive: 0.499.

With GGAGUUUGCCAGUCAGAUCTT against Ralgps1, the z-score was active: -2.11.

Turning to GGCCAAUAAAGAAACAAACTT against Cst9, the z-score was inactive: 1.08.

Take CCAUGCUUUUGAUUUUAGUTT against Lrig2: the z-score was inactive: 0.291.

GGUGUUCCACCAGGAUCACTT against Clca3a1: the z-score was inactive: 0.667.

For GUGCUUUCGUGUUUUUCAATT against Klrb1b, the z-score is inactive: -0.388.

GGUACAUUAAGGCACUGGCTT against Mgat5: the z-score was inactive: 0.248.

For the sequence GGAUUAUACACACGAAUUUTT against Gosr1, the z-score was inactive: 0.646.

CCUCAGAAAAAGCCUAUAGTT against Kcnj3: the z-score was active: -2.13.

Regarding GGAUCAAGAUGUUUACUAATT against Nedd1, the z-score is inactive: 0.345.

For the sequence AUGUAUUGAGUCAGGCAUCTT against Olfr243, the z-score is active: 2.32.

Turning to GCAUAACUAACCACAUCAATT against Sema5a, the z-score was inactive: -0.173.

For CCCAUGGAAAUCCUCAGUATT against Ctsa, the z-score was active: -2.1.

Regarding GGAACAGCAGCAGAGUGAATT against Gkap1, the z-score is inactive: -1.09.

On to GGAUGAGUGAAGACUUAGCTT against Sag, for which the z-score was inactive: 0.286.

Consider GGUGCAAGUUCCCAUUAUATT against Tpsab1, for which the z-score was inactive: -0.405.

For GGGACUUAUACUGAAAUAATT against Eif2ak4, the z-score was inactive: 0.771.

Regarding “GGGACAUUCAUAUGUCUAUTT against Vmn2r-ps105”, the z-score was inactive: 1.19.

For CCAAUUACCGAAUAAGUUCTT against Map3k12, the z-score was inactive: 0.336.

As to GGAAGGUUCAGAAGUGACATT against Strm, the z-score is inactive: 0.0881.

Turning to GGUGGUUUGUGAUGAAAAUTT against Pabpc1, the z-score was active: 2.11.

For the sequence CCUACUCAGUGACAAAGGATT against Olfr366, the z-score is inactive: -0.563.

In the case of GCGGAUGAUCAAGAAUCGATT against Atf6b, the z-score was inactive: -0.421.

For the sequence GGUGGACUUGUACCUCUUCTT against Tnks, the z-score is inactive: -0.0808.

As for CCCUAAUCAAGUUUGCUAUTT against Armc7, the z-score was inactive: 1.17.

For GGGUAUCAUUGUUUACCGATT against Slc25a31, the z-score was inactive: 1.41.

Take GGCUGAAGCGCAAGAGGAATT against Wdr46: the z-score was active: 2.68.

As for GAAUCCUUGUUCUAUGCUCTT against Vmn1r180, the z-score was inactive: 0.366.

On to GGCAAAACUCAUGUUCUUUTT against Prox1, for which the z-score was inactive: 0.283.

As for GCUUGAAUCUCCCAAGAUATT against Kdm4c, the z-score is inactive: -0.0989.

Regarding GGGUACAAAACUUGAACUUTT against Gins3, the z-score was active: 2.84.

GGGAUAGUGUAAGUUAGUUTT against Dppa4: the z-score was inactive: -0.0875.

GCCCAUAGUAUAAAAUACCTT against Dzip1: the z-score is inactive: 1.06.

Regarding GGAAGAUAUUGCUGUUGGATT against Mbd4, the z-score is inactive: 0.823.

GCUUACCACUAAGCAUCUUTT against Ctsc: the z-score is inactive: -1.26.

As for GGACUUUGCACUUCUCACATT against Fut1, the z-score is inactive: 0.789.

Turning to GCGAUCUCACGAGGACUAATT against Tigar, the z-score is inactive: 0.0244.

In the case of GGUUAUCACUCCUCAACAATT against Foxp1, the z-score was inactive: -1.67.

For GCCUUCUGGGUAGAAACUGTT against Lcn12, the z-score is inactive: -0.834.

Consider GCCAGGUGGAUUUGACUAUTT against Ptprv, for which the z-score is inactive: -0.739.
